The values below are quoted from earlier work in publication PMC9721373 (Antiviral Research, 2022).

What is called Kd is the equilibrium constant for the complex coming apart.

This series has as its target purified ACE2. Conditions: read-out: dissociation constant (KD); cited from earlier work.

Where a name gives a salt, the structure may show the parent alone.

Consider `CSc1ccc2c(c1)N(CCC1CCCCN1C)c1ccccc1S2` (stereo not shown) [Thioridazine hydrochloride], for which the dissociation constant Kd is 7.88 µM.
